# According to PMC4844679:
# These are yes or no findings as the source states them, for the method shown. Binding seen in cells or lysates may run through a third protein. Tags and fused reporters may be left off the sequences shown.
# B1: EGFP-tagged Wdr70 (S. pombe), from plasmid Rep41-EGFP-Wdr70 (protein, UniProt Q9UT73 1-576)
# chain: MDGTNNTIPLQFGKQAQTYDINALIARFIRPKESFLINSVEKESESKLNSKSTTLQSSDSEDWDSEENEDDITDVGVPGSHEIMFPGHSKIVTTTTFDKNGSRFYTGSLDNTIHCWDLNGLSATNPHPFKIIDPTDTNADNVGRYPVSKLSCSTKNQILALYTHSQPILYDRDGSLIVRFSKGDQYIRNMYNTKGHIAEITDGCWQPDSSQIFLTTGYDSTARIWDVNRTKSQLEVFVHVPEGSHTGLSRIPVTSCAWNPAKPDNFATAVLDGSIQFWQKGSRTKRPVMKIKDAHLPQQGISCLSFSQDGNYLLSRGEDNALRVWDLRNSNKCVNERIDILTPKAGGNAIFSPTQKLILAGSTAVNSMKAPLFVLDAMTLDTKATLFFDSKSTVTASVSAVSWNEKINQVSLGSADGNAYVLFSPNESIRGVKDAAMRPPKSKHIDDDLSSTVHINSLSGSAGTSDFGLVEETTESASAYFLEARRRRNAVRKDPKLSRQPQVGRLLEENSVDDIPLATMLNEDPREALLKYADVAKSNPMFTKMYSETQPTPIYQGVTEGDISSEEGNPSKKQKR
# Target: Flag-tagged histone H2B-K119R, S. pombe (S. pombe)
# Assay: co-IP; lysates of MMS-challenged S. pombe cells, treated with ethidium bromide for 10 min, precipitated by anti-Flag antibody
binder,measurement,value
B1,binding,no binding
